Measured values reported in patent US8409836B2, “Treatment of cellulosic material and enzymes useful therein” (Roal Oy, priority 2005, dated 2013).
Some of these results come from one statement about several compounds together.

Experiment: Thermal stability of recombinant Cel7 enzymes
Format: biochemical
Conditions: MUL activity, optimum pH, reaction time 1 h
Experimental: The recombinant CBH/Cel7 enzyme preparations were characterized in terms of pH optimum and thermal stability. The pH optimum of the recombinant CBH/Cel7 proteins from Thermoascus aurantiacus, Chaetomium thermophilum, and Acremonium thermophilum were determined in the universal McIlvaine buffer within a pH range of 3.0-8.0 using 4-methylumbelliferyl-β-D-lactoside (MUL) as a substrate (FIG. 3A). The pH optimum for Ct Cel7A and At Cel7A enzymes is at 5.5, above which the activity starts to gradually drop. The pH optimum of the recombinant crude Ta Cel7A is at 5.0 (FIG. 3A). Thermal stability of the recombinant Cel7 enzymes was determined by measuring the MUL activity in universal McIlvaine buffer at the optimum pH with reaction time of 1 h.

B1: Ct Cel7A: cellobiohydrolase of Chaetomium thermophilum ALKO4265, gene Ct cel7A, amino acid SEQ ID NO: 8, with CBD (protein)
chain: MMYKKFAALAALVAGASAQQACSLTAENHPSLTWKRCTSGGSCSTVNGAVTIDANWRWTHTVSGSTNCYTGNQWDTSLCTDGKSCAQTCCVDGADYSSTYGITTSGDSLNLKFVTKHQYGTNVGSRVYLMENDTKYQMFELLGNEFTFDVDVSNLGCGLNGALYFVSMDADGGMSKYSGNKAGAKYGTGYCDAQCPRDLKFINGEANVGNWTPSTNDANAGFGRYGSCCSEMDVWEANNMATAFTPHPCTTVGQSRCEADTCGGTYSSDRYAGVCDPDGCDFNAYRQGDKTFYGKGMTVDTNKKMTVVTQFHKNSAGVLSEIKRFYVQDGKIIANAESKIPGNPGNSITQEYCDAQKVAFSNTDDFNRKGGMAQMSKALAGPMVLVMSVWDDHYANMLWLDSTYPIDQAGAPGAERGACPTTSGVPAEIEAQVPNSNVIFSNIRFGPIGSTVPGLDGSNPGNPTTTVVPPASTSTSRPTSSTSSPVSTPTGQPGGCTTQKWGQCGGIGYTGCTNCVAGTTCTQLNPWYSQCL
  Activity retained at 70° C.: more than 60%

B2: Ta Cel7A: cellobiohydrolase of Thermoascus aurantiacus ALKO4242, gene Ta cel7A, amino acid SEQ ID NO: 2, no CBD (protein)
chain: MYQRALLFSFFLAAARAQQAGTVTAENHPSLTWQQCSSGGSCTTQNGKVVIDANWRWVHTTSGYTNCYTGNTWDTSICPDDVTCAQNCALDGADYSGTYGVTTSGNALRLNFVTQSSGKNIGSRLYLLQDDTTYQIFKLLGQEFTFDVDVSNLPCGLNGALYFVAMDADGGLSKYPGNKAGAKYGTGYCDSQCPRDLKFINGQANVEGWQPSANDPNAGVGNHGSCCAEMDVWEANSISTAVTPHPCDTPGQTMCQGDDCGGTYSSTRYAGTCDPDGCDFNPYRQGNHSFYGPGQIVDTSSKFTVVTQFITDDGTPSGTLTEIKRFYVQNGKVIPQSESTISGVTGNSITTEYCTAQKAAFGDNTGFFTHGGLQKISQALAQGMVLVMSLWDDHAANMLWLDSTYPTDADPDTPGVARGTCPTTSGVPADVESQYPNSYVIYSNIKVGPINSTFTAN
  Activity retained at 70° C.: more than 60%
